In the supplement of paper PMC11348887:
Some of the results follow. Small differences around the control level are noise.

Tests used:
Conditions in all cases: 5 µM; treatment: days 7-14 after plating, readout day 21
[1] = tested on: hPSC-derived cortical neurons (WA09); assay: nucleus area z-score vs screen plate; higher = larger nuclei (more mature)
[2] = tested on: hPSC-derived cortical neurons (WA09); assay: total neurite length per nucleus (MAP2) z-score; higher = more neurite growth
[3] = tested on: hPSC-derived cortical neurons (WA09); assay: nucleus roundness z-score vs screen plate; higher = rounder nuclei (more mature)
[4] = tested on: hPSC-derived cortical neurons (WA09); assay: KCl-induced FOS+/EGR-1+ double-positive nuclei fraction z-score (KCl minus unstimulated); higher = stronger activity-induced IEG response

| SMILES | nucleus area z-score [1] | total neurite length per nucleus (z-score) [2] | nucleus roundness z-score [3] | KCl-induced FOS+/EGR-1+ double-positive nuclei fraction z-score [4] |
| --- | --- | --- | --- | --- |
| COc1ccc(C[C@H](NC(=O)[C@H](C)NC(=O)CN2CCOCC2)C(=O)N[C@@H](Cc2ccccc2)C(=O)[C@@]2(C)CO2)cc1 | -14.7 | -4.27 | -1.61 | -0.375 |
| O=C(/C=C\n1cnc(-c2cc(C(F)(F)F)cc(C(F)(F)F)c2)n1)NNc1cnccn1 | -6.51 | -0.348 | -2.07 | -0.342 |
| C[C@]12CC[C@H](O)CC1=CC[C@@H]1[C@@H]2CC[C@]2(C)C(n3cnc4ccccc43)=CC[C@@H]12 [Galeterone] | 0.436 | -0.805 | 0.0138 | 2.43 |
| C=CC1=C(C(=O)O)N2C(=O)[C@@H](NC(=O)/C(=N\O)c3csc(N)n3)[C@H]2SC1 [Cefdinir] | 0.781 | -0.645 | -2.59 | -0.722 |
| CCN(CC)CCOC(=O)c1ccc(N)cc1 [Procaine] | -0.804 | 0.0764 | 0.503 | 0.691 |
| C[C@]1(Cn2ccnn2)[C@H](C(=O)O)N2C(=O)C[C@H]2S1(=O)=O [Tazobactam] | -0.0156 | -0.277 | -1.11 | -0.252 |
| Clc1ccc(C(c2c[nH]c3ccccc23)c2c[nH]c3ccccc23)cc1 | -4.53 | -3.86 | -5.17 | -0.906 |
| O=C(O)c1ccccc1O [Salicylic acid] | -0.616 | 0.45 | 0.0424 | -0.381 |
| CS(=O)(=O)N1CCN(Cc2cc3nc(-c4cccc5[nH]ncc45)nc(N4CCOCC4)c3s2)CC1 | -0.826 | 0.105 | 0.661 | 0.323 |
| C[C@@H]1COC(Nc2ccc3ncnc(Nc4ccc(OCc5nccs5)c(Cl)c4)c3c2)=N1 [Varlitinib] | 0.287 | 0.117 | 0.0861 | -0.923 |

Shown in CSV form: two of the compounds above
SMILES,nucleus area z-score [1],total neurite length per nucleus (z-score) [2],nucleus roundness z-score [3],KCl-induced FOS+/EGR-1+ double-positive nuclei fraction z-score [4]
COc1ccc(C[C@H](NC(=O)[C@H](C)NC(=O)CN2CCOCC2)C(=O)N[C@@H](Cc2ccccc2)C(=O)[C@@]2(C)CO2)cc1,-14.7,-4.27,-1.61,-0.375
C[C@@H]1COC(Nc2ccc3ncnc(Nc4ccc(OCc5nccs5)c(Cl)c4)c3c2)=N1 [Varlitinib],0.287,0.117,0.0861,-0.923
